# According to the supplement of paper PMC8728848:
# The other results are listed elsewhere or left out.
# B1: Loc1 (Escherichia coli) (protein)
# chain: APCALTNVGEQRGTYILKPLSMKGNLTAEKIENTGNIIECTDLQETTNAIKVHFLTQNALKFKVGSRHYIINFPFEYDGKKIELPGKSSYNLEEMLSAINFTIPYSIASVSDSSNTADIFPGTPFPLLFEIEVSSCTGNNTNCNSVRFNYNLNTILQVNLMTHHHHHH
# How the values were obtained:
# Assay in all cases: glycan array binding signal (z-score within array); higher = stronger binding
# Details in all cases: glycan notation: IUPAC condensed, linker removed
# [1] = biological target: Neu5Ac(a2-6)Gal(b1-4)GlcNAc(b1-3)Gal(b1-4)GlcNAc(b1-3)Gal(b1-4)GlcNAc(b1-2)Man(a1-3)[Neu5Ac(a2-6)Gal(b1-4)GlcNAc(b1-3)Gal(b1-4)GlcNAc(b1-3)Gal(b1-4)GlcNAc(b1-2)Man(a1-6)]GalNAc
# How it was run: (§1)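 Arrays were curated from the Consortium for Functional Glycomics database, 3228 in total, and kept only where the protein sequence was available. Binding is expressed as a within-array Z-score. This score was averaged across arrays of the same protein sequence at different concentrations or buffers and across linkers, and negative values can be read as non-binding.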
# [2] = biological target: Neu5Ac(a2-6)Gal(b1-4)GlcNAc(b1-3)Gal(b1-4)GlcNAc(b1-3)GalNAc
# How it was run: as §1
# [3] = biological target: Neu5Ac(a2-6)Gal(b1-4)GlcNAc(b1-3)Gal(b1-4)GlcNAc(b1-3)[Neu5Ac(a2-6)Gal(b1-4)GlcNAc(b1-3)Gal(b1-4)GlcNAc(b1-6)]GalNAc
# How it was run: as §1
# [4] = biological target: Neu5Ac(a2-6)Gal(b1-4)GlcNAc(b1-3)Gal(b1-4)GlcNAc(b1-6)[Gal(b1-3)]GalNAc
# How it was run: as §1
# [5] = biological target: Neu5Ac(a2-6)Gal(b1-4)GlcNAc(b1-3)Gal(b1-4)[Fuc(a1-3)]GlcNAc(b1-3)Gal(b1-4)[Fuc(a1-3)]GlcNAc
# How it was run: as §1
# [6] = biological target: Neu5Ac(a2-6)Gal(b1-4)GlcNAc(b1-3)GalNAc
# How it was run: as §1
# [7] = biological target: Neu5Ac(a2-6)Gal(b1-4)GlcNAc(b1-3)[Neu5Ac(a2-6)Gal(b1-4)GlcNAc(b1-6)]GalNAc
# How it was run: as §1
# [8] = biological target: Neu5Ac(a2-6)Gal(b1-4)GlcNAc(b1-6)GalNAc
# How it was run: as §1
# [9] = biological target: Neu5Ac(a2-6)Gal(b1-4)GlcNAc(b1-6)[Gal(b1-3)GlcNAc(b1-3)]Gal(b1-4)Glc
# How it was run: as §1
# [10] = biological target: Neu5Ac(a2-6)Gal(b1-4)GlcNAc(b1-6)[Gal(b1-3)]GalNAc
# How it was run: as §1
# [11] = biological target: Neu5Ac(a2-6)Gal(b1-4)GlcNAc6S
# How it was run: as §1
# [12] = biological target: Neu5Ac(a2-6)GalNAc
# How it was run: as §1
# [13] = biological target: Neu5Ac(a2-6)GalNAc(b1-4)GlcNAc
# How it was run: as §1
# [14] = biological target: Neu5Ac(a2-6)GalNAc(b1-4)GlcNAc6S
# How it was run: as §1
# [15] = biological target: Neu5Ac(a2-6)GlcNAc(b1-4)GlcNAc
# How it was run: as §1
# [16] = biological target: Neu5Ac(a2-6)GlcNAc(b1-4)GlcNAc(b1-4)GlcNAc
# How it was run: as §1
# [17] = biological target: Neu5Ac(a2-8)Neu5Ac
# How it was run: as §1
# [18] = biological target: Neu5Ac(a2-8)Neu5Ac(a2-3)Gal(b1-3)GalNAc(b1-4)[Neu5Ac(a2-3)]Gal(b1-4)Glc
# How it was run: as §1
# [19] = biological target: Neu5Ac(a2-8)Neu5Ac(a2-3)Gal(b1-3)GalNAc(b1-4)[Neu5Ac(a2-8)Neu5Ac(a2-3)]Gal(b1-4)Glc
# How it was run: as §1
# [20] = biological target: Neu5Ac(a2-8)Neu5Ac(a2-3)Gal(b1-4)Glc
# How it was run: as §1
# [21] = biological target: Neu5Ac(a2-8)Neu5Ac(a2-3)Gal(b1-4)GlcNAc
# How it was run: as §1
# [22] = biological target: Neu5Ac(a2-8)Neu5Ac(a2-3)[Gal(b1-3)GalNAc(b1-4)]Gal(b1-4)Glc
# How it was run: as §1
# [23] = biological target: Neu5Ac(a2-8)Neu5Ac(a2-3)[GalNAc(b1-4)]Gal(b1-4)Glc
# How it was run: as §1
# [24] = biological target: Neu5Ac(a2-8)Neu5Ac(a2-8)Neu5Ac
# How it was run: as §1
# [25] = biological target: Neu5Ac(a2-8)Neu5Ac(a2-8)Neu5Ac(a2-3)Gal(b1-4)Glc
# How it was run: as §1
# [26] = biological target: Neu5Ac(a2-8)Neu5Ac(a2-8)Neu5Ac(a2-3)[Gal(b1-3)GalNAc(b1-4)]Gal(b1-4)Glc
# How it was run: as §1
# [27] = biological target: Neu5Ac(a2-8)Neu5Ac(a2-8)Neu5Ac(a2-3)[GalNAc(b1-4)]Gal(b1-4)Glc
# How it was run: as §1
# [28] = biological target: Neu5Ac(a2-8)Neu5Ac(a2-8)Neu5Ac(a2-8)Neu5Ac(a2-3)[GalNAc(b1-4)]Gal(b1-4)Glc
# How it was run: as §1
# [29] = biological target: Neu5Ac(a2-8)Neu5Gc(a2-3)Gal(b1-4)GlcNAc
# How it was run: as §1
# [30] = biological target: Neu5Ac(b2-6)Gal(b1-4)GlcNAc
# How it was run: as §1
# [31] = biological target: Neu5Ac(b2-6)GalNAc
# How it was run: as §1
# [32] = biological target: Neu5Ac9Ac(a2-3)Gal(b1-3)GlcNAc
# How it was run: as §1
# [33] = biological target: Neu5Ac9Ac(a2-3)Gal(b1-4)GlcNAc
# How it was run: as §1
# [34] = biological target: Neu5Ac9Ac(a2-6)Gal(b1-4)GlcNAc
# How it was run: as §1
# [35] = biological target: Neu5Gc(a2-3)Gal(b1-3)GlcNAc
# How it was run: as §1
# [36] = biological target: Neu5Gc(a2-3)Gal(b1-3)[Fuc(a1-4)]GlcNAc
# How it was run: as §1
# [37] = biological target: Neu5Gc(a2-3)Gal(b1-4)Glc
# How it was run: as §1
# [38] = biological target: Neu5Gc(a2-3)Gal(b1-4)GlcNAc
# How it was run: as §1
# [39] = biological target: Neu5Gc(a2-3)Gal(b1-4)GlcNAc(b1-3)Gal(b1-4)GlcNAc(b1-2)Man(a1-3)[Neu5Gc(a2-3)Gal(b1-4)GlcNAc(b1-3)Gal(b1-4)GlcNAc(b1-2)Man(a1-6)]Man(b1-4)GlcNAc(b1-4)GlcNAc
# How it was run: as §1
# [40] = biological target: Neu5Gc(a2-3)Gal(b1-4)[Fuc(a1-3)]GlcNAc
# How it was run: as §1
# [41] = biological target: Neu5Gc(a2-6)Gal(b1-4)GlcNAc
# How it was run: as §1
# [42] = biological target: Neu5Gc(a2-6)GalNAc
# How it was run: as §1
# [43] = biological target: Neu5Gc(a2-8)Neu5Ac(a2-3)Gal(b1-4)GlcNAc
# How it was run: as §1
# [44] = biological target: Neu5Gc(a2-8)Neu5Gc(a2-3)Gal(b1-4)GlcNAc
# How it was run: as §1
# [45] = biological target: Neu5Gc(a2-8)Neu5Gc(a2-3)Gal(b1-4)GlcNAc(b1-3)Gal(b1-4)GlcNAc
# How it was run: as §1
binder,measurement,setting,value
B1,glycan array binding signal (z-score),[1],1.65
same,glycan array binding signal (z-score),[2],-0.946
same,glycan array binding signal (z-score),[3],0.271
same,glycan array binding signal (z-score),[4],-0.119
same,glycan array binding signal (z-score),[5],-0.526
same,glycan array binding signal (z-score),[6],0.013
same,glycan array binding signal (z-score),[7],-0.356
same,glycan array binding signal (z-score),[8],-0.348
same,glycan array binding signal (z-score),[9],-0.628
same,glycan array binding signal (z-score),[10],-0.824
same,glycan array binding signal (z-score),[11],-0.419
same,glycan array binding signal (z-score),[12],-0.762
same,glycan array binding signal (z-score),[13],1.45
same,glycan array binding signal (z-score),[14],-0.365
same,glycan array binding signal (z-score),[15],-0.735
same,glycan array binding signal (z-score),[16],-0.73
same,glycan array binding signal (z-score),[17],0.04
same,glycan array binding signal (z-score),[18],0.266
same,glycan array binding signal (z-score),[19],0.203
same,glycan array binding signal (z-score),[20],8.5
same,glycan array binding signal (z-score),[21],-0.065
same,glycan array binding signal (z-score),[22],0.262
same,glycan array binding signal (z-score),[23],0.28
same,glycan array binding signal (z-score),[24],-0.352
same,glycan array binding signal (z-score),[25],0.255
same,glycan array binding signal (z-score),[26],0.345
same,glycan array binding signal (z-score),[27],0.741
same,glycan array binding signal (z-score),[28],1.19
same,glycan array binding signal (z-score),[29],-0.211
same,glycan array binding signal (z-score),[30],-0.834
same,glycan array binding signal (z-score),[31],-0.643
same,glycan array binding signal (z-score),[32],0.131
same,glycan array binding signal (z-score),[33],-0.389
same,glycan array binding signal (z-score),[34],0.667
same,glycan array binding signal (z-score),[35],-0.923
same,glycan array binding signal (z-score),[36],0.041
same,glycan array binding signal (z-score),[37],-0.669
same,glycan array binding signal (z-score),[38],-1.23
same,glycan array binding signal (z-score),[39],0.253
same,glycan array binding signal (z-score),[40],-1.04
same,glycan array binding signal (z-score),[41],-0.072
same,glycan array binding signal (z-score),[42],0.381
same,glycan array binding signal (z-score),[43],0.15
same,glycan array binding signal (z-score),[44],0.486
same,glycan array binding signal (z-score),[45],-0.565

# Reformatted tab-delimited: entries from further up.
binder	measurement	setting	value
B1	glycan array binding signal (z-score)	[1]	1.65
same	glycan array binding signal (z-score)	[2]	-0.946
